The record followed here is PMC9830504.

The chains behind the UniProt entries cited, without tags or fusion partners. Where a name states a change or a piece, a line headed by the entry shows the natural chain unless it says otherwise.
UniProt P34130: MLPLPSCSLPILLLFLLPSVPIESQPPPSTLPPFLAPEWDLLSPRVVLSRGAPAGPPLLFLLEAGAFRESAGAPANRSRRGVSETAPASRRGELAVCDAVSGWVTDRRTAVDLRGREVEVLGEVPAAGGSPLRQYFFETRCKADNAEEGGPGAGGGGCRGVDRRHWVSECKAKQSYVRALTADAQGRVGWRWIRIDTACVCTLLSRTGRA
UniProt P78527: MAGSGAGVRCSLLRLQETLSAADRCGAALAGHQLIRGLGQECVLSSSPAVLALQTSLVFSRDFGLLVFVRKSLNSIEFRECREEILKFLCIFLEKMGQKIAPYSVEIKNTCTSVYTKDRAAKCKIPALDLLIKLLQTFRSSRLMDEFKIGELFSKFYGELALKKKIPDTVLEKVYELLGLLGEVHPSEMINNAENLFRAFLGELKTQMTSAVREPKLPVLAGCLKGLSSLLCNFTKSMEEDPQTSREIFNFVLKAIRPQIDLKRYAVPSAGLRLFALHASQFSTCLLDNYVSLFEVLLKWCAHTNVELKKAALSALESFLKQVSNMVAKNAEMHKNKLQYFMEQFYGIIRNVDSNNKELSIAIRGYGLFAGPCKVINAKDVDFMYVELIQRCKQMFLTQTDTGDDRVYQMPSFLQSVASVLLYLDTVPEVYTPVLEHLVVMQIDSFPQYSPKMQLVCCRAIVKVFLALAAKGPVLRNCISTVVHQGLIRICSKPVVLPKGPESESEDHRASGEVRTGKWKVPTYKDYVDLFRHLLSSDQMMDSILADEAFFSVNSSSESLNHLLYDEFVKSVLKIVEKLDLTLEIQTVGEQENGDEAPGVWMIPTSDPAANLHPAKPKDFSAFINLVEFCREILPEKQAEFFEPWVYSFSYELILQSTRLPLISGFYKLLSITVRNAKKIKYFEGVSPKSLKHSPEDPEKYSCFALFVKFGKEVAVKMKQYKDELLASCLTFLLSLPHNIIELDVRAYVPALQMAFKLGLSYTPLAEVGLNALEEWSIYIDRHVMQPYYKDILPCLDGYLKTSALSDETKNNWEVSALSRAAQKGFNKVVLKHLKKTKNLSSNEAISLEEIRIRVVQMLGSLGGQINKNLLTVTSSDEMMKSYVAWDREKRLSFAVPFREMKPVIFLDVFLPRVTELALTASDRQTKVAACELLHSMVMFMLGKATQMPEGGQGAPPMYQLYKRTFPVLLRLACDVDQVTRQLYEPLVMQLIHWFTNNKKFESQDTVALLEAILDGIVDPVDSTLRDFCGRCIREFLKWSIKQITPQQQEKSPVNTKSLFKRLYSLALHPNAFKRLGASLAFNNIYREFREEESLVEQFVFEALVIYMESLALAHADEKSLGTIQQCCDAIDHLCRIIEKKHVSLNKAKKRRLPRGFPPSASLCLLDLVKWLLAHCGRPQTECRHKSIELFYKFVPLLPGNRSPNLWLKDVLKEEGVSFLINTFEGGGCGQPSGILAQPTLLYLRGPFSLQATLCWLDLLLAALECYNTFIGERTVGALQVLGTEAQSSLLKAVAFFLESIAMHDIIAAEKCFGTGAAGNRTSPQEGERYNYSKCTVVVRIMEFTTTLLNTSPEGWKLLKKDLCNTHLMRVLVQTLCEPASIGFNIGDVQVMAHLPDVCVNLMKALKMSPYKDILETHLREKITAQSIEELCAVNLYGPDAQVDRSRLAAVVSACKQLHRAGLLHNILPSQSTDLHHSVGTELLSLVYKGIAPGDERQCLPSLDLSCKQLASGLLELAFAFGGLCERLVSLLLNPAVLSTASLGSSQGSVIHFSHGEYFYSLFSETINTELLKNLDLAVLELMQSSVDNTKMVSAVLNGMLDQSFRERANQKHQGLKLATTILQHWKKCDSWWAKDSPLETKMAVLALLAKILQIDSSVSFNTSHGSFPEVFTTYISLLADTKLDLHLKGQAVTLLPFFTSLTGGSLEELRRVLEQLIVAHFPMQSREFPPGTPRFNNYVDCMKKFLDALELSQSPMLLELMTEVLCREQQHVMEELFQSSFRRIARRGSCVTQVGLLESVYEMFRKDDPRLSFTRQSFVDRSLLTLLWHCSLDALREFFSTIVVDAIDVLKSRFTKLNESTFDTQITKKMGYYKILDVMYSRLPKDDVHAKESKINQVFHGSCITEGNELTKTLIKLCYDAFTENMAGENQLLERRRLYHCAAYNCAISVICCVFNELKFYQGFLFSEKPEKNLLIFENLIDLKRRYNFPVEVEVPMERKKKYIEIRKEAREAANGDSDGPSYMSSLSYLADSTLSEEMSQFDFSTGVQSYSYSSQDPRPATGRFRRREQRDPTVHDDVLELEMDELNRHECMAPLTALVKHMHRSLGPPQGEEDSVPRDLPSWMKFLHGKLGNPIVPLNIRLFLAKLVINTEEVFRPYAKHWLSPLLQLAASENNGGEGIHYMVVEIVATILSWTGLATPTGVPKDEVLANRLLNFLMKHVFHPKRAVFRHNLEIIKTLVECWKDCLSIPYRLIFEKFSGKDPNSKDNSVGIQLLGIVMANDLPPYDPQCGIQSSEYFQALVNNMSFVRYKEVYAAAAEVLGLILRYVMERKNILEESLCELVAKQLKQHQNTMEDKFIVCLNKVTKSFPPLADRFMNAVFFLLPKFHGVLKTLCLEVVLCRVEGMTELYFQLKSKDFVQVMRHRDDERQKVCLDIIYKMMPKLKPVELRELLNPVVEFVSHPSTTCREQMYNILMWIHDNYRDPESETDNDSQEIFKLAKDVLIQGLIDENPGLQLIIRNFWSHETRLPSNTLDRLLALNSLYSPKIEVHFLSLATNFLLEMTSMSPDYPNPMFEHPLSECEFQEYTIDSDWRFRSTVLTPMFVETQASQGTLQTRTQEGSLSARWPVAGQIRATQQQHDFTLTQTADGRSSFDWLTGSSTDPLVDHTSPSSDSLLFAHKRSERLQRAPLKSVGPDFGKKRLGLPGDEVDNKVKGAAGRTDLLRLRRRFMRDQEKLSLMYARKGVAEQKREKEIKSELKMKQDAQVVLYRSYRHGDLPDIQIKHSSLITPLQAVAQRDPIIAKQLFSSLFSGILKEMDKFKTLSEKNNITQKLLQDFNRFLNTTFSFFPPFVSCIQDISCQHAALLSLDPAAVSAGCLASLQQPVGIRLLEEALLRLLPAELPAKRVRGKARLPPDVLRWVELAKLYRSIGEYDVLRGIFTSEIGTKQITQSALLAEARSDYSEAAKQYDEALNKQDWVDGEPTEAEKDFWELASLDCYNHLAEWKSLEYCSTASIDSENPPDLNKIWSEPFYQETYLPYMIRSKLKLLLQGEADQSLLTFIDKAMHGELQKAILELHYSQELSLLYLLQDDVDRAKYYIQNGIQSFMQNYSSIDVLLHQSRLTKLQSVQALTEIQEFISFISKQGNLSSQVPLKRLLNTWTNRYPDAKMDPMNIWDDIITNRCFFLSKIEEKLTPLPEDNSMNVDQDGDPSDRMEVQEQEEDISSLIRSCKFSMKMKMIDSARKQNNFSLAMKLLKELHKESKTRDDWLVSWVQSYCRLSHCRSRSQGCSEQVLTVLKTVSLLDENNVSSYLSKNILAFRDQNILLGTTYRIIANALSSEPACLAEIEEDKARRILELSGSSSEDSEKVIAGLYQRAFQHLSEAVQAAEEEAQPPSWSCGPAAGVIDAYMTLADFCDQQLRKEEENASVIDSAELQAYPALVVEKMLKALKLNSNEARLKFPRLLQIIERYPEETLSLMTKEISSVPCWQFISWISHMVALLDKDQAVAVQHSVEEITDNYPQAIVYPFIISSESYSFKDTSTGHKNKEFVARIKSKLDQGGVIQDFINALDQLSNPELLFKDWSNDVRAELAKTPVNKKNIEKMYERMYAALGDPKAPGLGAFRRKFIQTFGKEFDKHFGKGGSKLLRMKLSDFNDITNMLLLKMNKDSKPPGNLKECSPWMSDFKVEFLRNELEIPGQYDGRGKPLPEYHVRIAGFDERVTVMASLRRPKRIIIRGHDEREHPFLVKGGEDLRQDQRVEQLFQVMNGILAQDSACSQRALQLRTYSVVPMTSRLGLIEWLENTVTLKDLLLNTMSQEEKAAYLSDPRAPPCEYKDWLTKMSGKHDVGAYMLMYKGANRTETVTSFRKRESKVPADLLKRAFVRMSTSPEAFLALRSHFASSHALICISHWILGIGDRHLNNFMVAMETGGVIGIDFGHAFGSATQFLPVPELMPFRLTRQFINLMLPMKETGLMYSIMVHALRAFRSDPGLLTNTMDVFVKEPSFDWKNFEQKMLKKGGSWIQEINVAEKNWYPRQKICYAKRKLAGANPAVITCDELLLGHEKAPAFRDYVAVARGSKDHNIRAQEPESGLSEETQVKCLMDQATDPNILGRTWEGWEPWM

This assay has as its target neurotrophin 4 (Flag-NTF4) (UniProt P34130). As to the kind of experiment: co-IP; Co-IP of NTF4 with PRKDC and ANXA1 on Protein A/G magnetic beads, then SDS-PAGE and immunoblot; cells and precipitating antibody not told for this panel. In general terms: In western blotting, separated proteins are transferred to a membrane and probed.

Results are given in words; binding and its absence hold for the method and conditions named. In cells and extracts the contact can be indirect. Binding can be weak; no strength is given.

Consider “DNA-dependent protein kinase catalytic subunit (PRKDC) (from UniProt P78527 1-4128)”, for which the binding entry is “binds”.

B1: Annexin A1 (ANXA1) (protein, UniProt P04083 1-346)
chain: MAMVSEFLKQAWFIENEEQEYVQTVKSSKGGPGSAVSPYPTFNPSSDVAALHKAIMVKGVDEATIIDILTKRNNAQRQQIKAAYLQETGKPLDETLKKALTGHLEEVVLALLKTPAQFDADELRAAMKGLGTDEDTLIEILASRTNKEIRDINRVYREELKRDLAKDITSDTSGDFRNALLSLAKGDRSEDFGVNEDLADSDARALYEAGERRKGTDVNVFNTILTTRSYPQLRRVFQKYTKYSKHDMNKVLDLELKGDIEKCLTAIVKCATSKPAFFAEKLHQAMKGVGTRHKALIRIMVSRSEIDMNDIKAFYQKMYGISLCQAILDETKGDYEKILVALCGGN
Take B1: the binding result is “binds”.
